The record followed here is PMC9861516.

Data set [1] relates to T1, OmpR (Acidithiobacillus caldus MTH-04).
T1 sequence (looked up): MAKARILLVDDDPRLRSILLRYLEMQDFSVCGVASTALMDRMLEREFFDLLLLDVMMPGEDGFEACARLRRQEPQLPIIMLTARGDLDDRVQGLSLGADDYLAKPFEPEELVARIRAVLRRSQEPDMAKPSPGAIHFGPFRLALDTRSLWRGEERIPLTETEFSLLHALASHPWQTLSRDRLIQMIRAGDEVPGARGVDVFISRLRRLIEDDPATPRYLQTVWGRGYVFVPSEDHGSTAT
Put plainly: ITC. The note with it: ITC: TE buffer (100 mM Tris-HCl, 50 mM EDTA, pH 8.0), 30 C, 24 uM OmpR, 2 uM dsDNA; recombinant protein; residues 1-240; protein details: His tag (pET-28a, BamHI/HindIII, HisTrap purified); probe letters rebuilt from the primers and the genome.

Data set [2] shares this test system. Put plainly: EMSA. The note with it: recombinant protein; residues 1-240; protein details: His tag (pET-28a, BamHI/HindIII, HisTrap purified); probe letters rebuilt from the primers and the genome. On the technique in general: In EMSA bound probe runs differently from free probe, usually more slowly.

A negative result means that nothing was seen under these conditions. Tags and fusion partners may be left off the protein sequences shown.

On to “AGCGCCGATTGTGTACAGAATGAACAGTGGCGAGTCTGCTCGGCAACCCGGACATGGGATGGGAATCGGGTTGATGATTTGTCATCGCATCATGGCATTGCACAAGGGCTCTTTGCATTTCACATCAGAGGATGGGCTGGCGGCAACCATTTGCCTTCCGAGAGTACAAGATGGAGTAACATCGGCACAGAGACAGGAATTCAACGCACGTAAATTGTAACACCTGTTACACCTGTTACAACTTGTTACATAAGCTAAAACTTATATGCAATTGTCTCCTATGGGCCCCGAGTATACTATCCGAAGCGCGGCGTAGTTATGCCCCTAGACAACGTATTAGCGATTCGGAGATTATATATC (double strand) [T360 (tetH promoter fragment)]”, for which the binding result in data set [1] and in data set [2] was “binds” throughout.
In the case of “CGCAATATTCTGCGGGCGGTCTATGAAGCCGAGCGGCAGAACGAGATTCAGATCGTCGCCATCAACGATCTCGGCAGCCCGGAGACCAATGCCCATCTGACCCAGTACGACTCGGTACACGGCCGCTTTCCCTTCCCCGTCAGCGTCGAGGGGCAGGAGATGTTGGTGGGCAAGGATCGCGTGCGGGTTCTGGCGGAGCGGGATCCGAGCAAGCTGCCCTGGGGTGACCTGGGGGTGGACGTGGTGCTGGAGTGCACCGGCATCTTCACCACCCGCGAAAAGGCGTCGCTGCACATCCAGGGTGGCGCCAAGAAGGTCCTGATCTCCGCCCCGGCCAAGGATCCGGTGGACCTTACCGTA (double strand) [G360 (gapdH gene fragment)]”, the binding result in data set [1] and in data set [2] was “no binding” in each case.
